Data taken from the supplement of paper PMC12067093, “Discovery and optimisation of a covalent ligand for TRIM25 and its application to targeted protein ubiquitination” (Chemical Science, 2025).
The list shows a part of the results.

Protein sequences, listed by entry. Tags and fused reporters are not part of them. Lines headed by an entry give the natural chain unless they say otherwise; changes in a name come on top.
UniProt Q13459: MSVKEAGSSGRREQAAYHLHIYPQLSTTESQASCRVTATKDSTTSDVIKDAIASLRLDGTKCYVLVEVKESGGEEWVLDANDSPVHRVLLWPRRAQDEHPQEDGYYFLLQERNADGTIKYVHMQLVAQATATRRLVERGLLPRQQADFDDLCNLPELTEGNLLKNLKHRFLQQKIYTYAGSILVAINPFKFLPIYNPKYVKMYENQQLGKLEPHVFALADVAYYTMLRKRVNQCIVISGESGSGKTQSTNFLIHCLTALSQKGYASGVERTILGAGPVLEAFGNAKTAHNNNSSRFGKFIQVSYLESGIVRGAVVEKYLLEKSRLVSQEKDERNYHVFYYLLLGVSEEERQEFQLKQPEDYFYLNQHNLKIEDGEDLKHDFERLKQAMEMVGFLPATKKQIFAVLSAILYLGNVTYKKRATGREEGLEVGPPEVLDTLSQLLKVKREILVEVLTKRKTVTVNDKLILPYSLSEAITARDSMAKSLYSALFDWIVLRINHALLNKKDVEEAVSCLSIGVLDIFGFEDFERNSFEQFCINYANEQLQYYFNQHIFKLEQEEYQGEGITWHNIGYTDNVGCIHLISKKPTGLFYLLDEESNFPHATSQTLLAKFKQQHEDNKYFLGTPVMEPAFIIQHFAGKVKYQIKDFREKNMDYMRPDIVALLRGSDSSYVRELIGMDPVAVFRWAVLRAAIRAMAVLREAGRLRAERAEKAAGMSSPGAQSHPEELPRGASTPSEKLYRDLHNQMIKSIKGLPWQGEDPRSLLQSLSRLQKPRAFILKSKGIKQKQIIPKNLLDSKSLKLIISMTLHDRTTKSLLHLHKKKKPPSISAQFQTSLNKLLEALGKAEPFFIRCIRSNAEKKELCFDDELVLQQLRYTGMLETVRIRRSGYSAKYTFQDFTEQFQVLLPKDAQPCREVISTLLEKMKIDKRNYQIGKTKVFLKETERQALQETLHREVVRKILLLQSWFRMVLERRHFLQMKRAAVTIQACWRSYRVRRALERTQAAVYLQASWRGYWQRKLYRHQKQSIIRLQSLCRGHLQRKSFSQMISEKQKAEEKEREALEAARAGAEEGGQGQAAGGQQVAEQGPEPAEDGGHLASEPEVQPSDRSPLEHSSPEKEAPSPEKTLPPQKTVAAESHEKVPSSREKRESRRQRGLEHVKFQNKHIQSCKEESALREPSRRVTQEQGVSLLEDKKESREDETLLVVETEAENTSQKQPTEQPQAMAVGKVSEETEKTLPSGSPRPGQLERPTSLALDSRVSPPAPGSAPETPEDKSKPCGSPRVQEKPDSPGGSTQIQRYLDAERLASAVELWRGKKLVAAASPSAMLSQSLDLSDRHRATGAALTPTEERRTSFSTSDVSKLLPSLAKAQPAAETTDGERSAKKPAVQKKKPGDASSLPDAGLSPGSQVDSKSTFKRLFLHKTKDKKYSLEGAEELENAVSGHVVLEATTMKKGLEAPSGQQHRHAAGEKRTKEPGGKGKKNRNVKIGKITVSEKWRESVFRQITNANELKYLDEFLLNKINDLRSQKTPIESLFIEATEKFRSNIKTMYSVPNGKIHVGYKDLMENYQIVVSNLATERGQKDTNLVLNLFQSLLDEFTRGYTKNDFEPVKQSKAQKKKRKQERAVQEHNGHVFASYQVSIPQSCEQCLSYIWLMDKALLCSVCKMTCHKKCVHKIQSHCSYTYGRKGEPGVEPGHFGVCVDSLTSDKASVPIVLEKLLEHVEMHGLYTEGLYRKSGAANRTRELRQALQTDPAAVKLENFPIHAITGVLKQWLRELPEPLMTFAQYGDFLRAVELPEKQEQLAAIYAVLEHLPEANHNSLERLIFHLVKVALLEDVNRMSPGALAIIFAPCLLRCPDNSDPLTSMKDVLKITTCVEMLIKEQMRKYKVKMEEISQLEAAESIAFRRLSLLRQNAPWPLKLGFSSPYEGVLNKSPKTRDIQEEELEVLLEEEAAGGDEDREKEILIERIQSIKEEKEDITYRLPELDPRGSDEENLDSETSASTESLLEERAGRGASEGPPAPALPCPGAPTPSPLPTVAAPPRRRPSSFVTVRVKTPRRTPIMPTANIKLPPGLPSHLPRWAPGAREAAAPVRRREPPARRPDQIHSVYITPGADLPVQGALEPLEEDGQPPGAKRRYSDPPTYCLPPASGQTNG
UniProt Q9H0A0: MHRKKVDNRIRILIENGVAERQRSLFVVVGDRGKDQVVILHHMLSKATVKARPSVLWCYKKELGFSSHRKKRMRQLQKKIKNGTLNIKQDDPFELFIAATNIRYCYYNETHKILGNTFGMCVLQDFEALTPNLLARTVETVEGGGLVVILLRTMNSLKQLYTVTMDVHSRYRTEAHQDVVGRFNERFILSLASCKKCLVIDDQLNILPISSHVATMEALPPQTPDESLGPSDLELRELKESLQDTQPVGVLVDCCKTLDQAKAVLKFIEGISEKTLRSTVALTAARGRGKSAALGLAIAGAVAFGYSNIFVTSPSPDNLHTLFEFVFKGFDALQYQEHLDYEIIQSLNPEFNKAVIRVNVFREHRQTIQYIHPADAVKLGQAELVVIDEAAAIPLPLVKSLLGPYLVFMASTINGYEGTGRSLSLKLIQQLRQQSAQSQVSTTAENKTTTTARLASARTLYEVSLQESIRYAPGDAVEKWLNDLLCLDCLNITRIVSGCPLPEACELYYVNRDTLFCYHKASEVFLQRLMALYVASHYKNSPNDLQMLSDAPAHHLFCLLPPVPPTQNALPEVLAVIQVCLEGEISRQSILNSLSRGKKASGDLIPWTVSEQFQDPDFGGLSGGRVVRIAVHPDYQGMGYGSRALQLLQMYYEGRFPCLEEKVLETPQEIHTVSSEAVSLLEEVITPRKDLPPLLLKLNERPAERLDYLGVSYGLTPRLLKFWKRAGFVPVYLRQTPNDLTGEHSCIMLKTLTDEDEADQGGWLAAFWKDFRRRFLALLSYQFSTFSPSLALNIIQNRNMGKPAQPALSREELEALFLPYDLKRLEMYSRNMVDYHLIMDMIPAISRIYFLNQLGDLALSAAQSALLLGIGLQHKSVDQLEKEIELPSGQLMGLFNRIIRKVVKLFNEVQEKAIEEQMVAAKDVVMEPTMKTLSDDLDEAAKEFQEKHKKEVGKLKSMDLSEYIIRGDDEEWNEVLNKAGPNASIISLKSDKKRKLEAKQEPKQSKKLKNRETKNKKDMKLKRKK
UniProt Q6XQN6: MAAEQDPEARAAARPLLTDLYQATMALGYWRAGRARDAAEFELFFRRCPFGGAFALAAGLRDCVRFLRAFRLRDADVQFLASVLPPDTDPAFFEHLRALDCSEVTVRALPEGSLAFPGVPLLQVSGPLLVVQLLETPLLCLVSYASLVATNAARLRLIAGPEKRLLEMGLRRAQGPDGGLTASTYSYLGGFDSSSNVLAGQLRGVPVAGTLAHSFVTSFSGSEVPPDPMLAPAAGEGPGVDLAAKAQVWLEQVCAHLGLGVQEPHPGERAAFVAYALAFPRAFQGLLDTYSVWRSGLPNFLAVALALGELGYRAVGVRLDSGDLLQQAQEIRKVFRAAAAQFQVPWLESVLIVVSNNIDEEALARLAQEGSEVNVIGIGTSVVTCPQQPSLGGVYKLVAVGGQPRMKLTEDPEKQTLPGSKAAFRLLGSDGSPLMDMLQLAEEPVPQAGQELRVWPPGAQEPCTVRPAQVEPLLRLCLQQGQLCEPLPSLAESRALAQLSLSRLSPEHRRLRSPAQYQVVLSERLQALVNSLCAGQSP
UniProt Q15003, whole entry, looked up: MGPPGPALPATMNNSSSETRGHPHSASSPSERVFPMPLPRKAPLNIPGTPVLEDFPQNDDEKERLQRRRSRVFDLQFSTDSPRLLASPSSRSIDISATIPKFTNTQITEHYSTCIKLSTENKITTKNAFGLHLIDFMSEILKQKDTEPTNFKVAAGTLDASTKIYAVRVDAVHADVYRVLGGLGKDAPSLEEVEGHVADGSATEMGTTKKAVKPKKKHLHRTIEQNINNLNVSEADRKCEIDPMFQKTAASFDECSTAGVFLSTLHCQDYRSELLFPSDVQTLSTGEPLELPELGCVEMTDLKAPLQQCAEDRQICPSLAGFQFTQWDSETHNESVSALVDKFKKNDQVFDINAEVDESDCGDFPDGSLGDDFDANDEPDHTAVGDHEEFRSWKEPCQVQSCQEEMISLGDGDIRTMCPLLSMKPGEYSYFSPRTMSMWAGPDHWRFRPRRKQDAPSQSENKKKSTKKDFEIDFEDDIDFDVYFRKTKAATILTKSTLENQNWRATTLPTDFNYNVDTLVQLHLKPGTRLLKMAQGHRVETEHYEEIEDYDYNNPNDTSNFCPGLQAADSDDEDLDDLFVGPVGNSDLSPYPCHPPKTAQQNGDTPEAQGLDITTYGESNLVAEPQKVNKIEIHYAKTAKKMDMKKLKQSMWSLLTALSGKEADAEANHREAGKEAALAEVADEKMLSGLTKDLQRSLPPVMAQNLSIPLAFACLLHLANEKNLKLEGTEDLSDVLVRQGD
UniProt O43776: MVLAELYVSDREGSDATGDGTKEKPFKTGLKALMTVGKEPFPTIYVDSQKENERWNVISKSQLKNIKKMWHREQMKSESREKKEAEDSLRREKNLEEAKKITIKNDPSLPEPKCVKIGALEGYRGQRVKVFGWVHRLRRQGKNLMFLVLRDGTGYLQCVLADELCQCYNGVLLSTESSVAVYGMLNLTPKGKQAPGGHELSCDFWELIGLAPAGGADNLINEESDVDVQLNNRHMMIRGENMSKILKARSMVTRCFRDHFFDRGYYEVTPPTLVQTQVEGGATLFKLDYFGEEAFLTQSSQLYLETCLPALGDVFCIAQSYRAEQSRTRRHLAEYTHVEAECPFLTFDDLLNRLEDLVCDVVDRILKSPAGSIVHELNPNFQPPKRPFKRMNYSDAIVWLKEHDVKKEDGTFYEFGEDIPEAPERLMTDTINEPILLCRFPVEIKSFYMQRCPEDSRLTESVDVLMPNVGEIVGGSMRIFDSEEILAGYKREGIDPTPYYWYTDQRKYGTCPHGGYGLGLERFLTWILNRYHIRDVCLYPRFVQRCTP
UniProt Q96RE7: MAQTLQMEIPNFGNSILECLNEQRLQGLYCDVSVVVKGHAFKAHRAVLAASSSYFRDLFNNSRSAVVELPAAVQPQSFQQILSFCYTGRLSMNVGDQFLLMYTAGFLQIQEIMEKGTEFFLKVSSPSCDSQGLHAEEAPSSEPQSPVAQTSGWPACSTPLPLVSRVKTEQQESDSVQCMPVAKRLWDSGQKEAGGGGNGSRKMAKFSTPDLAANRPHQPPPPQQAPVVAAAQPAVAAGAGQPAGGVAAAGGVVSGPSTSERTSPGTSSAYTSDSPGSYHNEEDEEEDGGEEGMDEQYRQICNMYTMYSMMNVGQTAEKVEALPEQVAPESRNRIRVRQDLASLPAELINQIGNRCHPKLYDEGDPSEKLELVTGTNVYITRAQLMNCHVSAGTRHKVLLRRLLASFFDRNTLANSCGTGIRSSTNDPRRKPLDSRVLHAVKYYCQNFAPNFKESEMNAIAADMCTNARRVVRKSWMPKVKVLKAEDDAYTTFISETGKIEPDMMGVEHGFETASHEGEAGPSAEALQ
UniProt Q6N069: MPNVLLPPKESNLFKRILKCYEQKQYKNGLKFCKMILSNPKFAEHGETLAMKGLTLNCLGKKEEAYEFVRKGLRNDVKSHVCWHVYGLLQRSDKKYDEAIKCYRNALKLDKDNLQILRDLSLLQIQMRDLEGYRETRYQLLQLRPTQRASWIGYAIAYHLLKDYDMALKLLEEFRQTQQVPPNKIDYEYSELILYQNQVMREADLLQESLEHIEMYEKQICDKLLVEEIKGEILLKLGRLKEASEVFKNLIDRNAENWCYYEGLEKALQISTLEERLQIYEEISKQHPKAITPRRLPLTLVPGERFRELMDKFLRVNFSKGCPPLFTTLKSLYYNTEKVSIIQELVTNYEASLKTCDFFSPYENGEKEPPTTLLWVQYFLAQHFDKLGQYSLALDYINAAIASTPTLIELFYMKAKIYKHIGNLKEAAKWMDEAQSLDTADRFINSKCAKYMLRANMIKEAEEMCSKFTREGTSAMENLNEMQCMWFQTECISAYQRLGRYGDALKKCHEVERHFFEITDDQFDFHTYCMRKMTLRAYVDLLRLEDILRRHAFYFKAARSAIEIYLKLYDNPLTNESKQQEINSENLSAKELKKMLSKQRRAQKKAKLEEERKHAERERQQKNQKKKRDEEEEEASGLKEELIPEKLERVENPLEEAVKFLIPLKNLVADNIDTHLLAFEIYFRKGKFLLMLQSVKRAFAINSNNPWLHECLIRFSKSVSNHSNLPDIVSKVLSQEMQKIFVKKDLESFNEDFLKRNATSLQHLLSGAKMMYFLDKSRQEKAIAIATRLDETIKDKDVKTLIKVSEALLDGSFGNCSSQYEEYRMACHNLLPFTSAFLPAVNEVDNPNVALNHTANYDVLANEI

compound: Cc1cc(ccc1-c1ccccc1)C(=O)N1CCCN(CC1)C(=O)CCl [compound 10]; assay: probe-labelled cysteine peptide fold change vs DMSO (competition) (log2 fold change); higher = less target engagement (more negative = stronger competition); conditions: 10 µM; THP-1; incubation time: 4 h
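Further: competitive profiling in live THP-1 cells: cysteine peptides tagged with an iodoacetamide desthiobiotin (IA-DTB) probe, intensity after compound treatment relative to DMSO-treated cells.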

Target	probe-labelled cysteine peptide fold change
MYO9B_Q13459_34_REQAAYHLHIYPQLSTTESQASCR (UniProt Q13459)	0.0275
NCALD_P61601_38_DCPSGHLSMEEFKK (UniProt P61601)	0.362
NAT10_Q9H0A0_746_QTPNDLTGEHSCIMLK (UniProt Q9H0A0)	0.0778
NAPRT_Q6XQN6_484_LCLQQGQLCEPLPSLAESR (UniProt Q6XQN6)	0.0212
NCAPD2_Q15021_421_SVLVCK (UniProt Q15021)	-0.117
NCEH1_Q6PIU2_345_TYILTCEHDVLRDDGIMYAK (UniProt Q6PIU2)	0.158
NCAPH_Q15003_267_TAASFDECSTAGVFLSTLHCQDYR (UniProt Q15003)	-0.42
NASP_P49321_708_KPTDGASSSNCVTDISHLVR (UniProt P49321)	-0.0522
MYO9B_Q13459_62_CYVLVEVK (UniProt Q13459)	0.169
NCF2_P19878_514_VFVEDCATTDLESTR (UniProt P19878)	-0.00446
NARS_O43776_511_YGTCPHGGYGLGLER (UniProt O43776)	-0.508
NCAPG2_Q86XI2_285_ILEAIENDCIQDFMFHGIHLPR (UniProt Q86XI2)	-0.0654
NACC1_Q96RE7_464_ESEMNAIAADMCTNAR (UniProt Q96RE7)	0.0605
NBAS_A2RRP1_1777_LQYYFTLLENCGCADLGNCAIKPETHIR (UniProt A2RRP1)	-0.104
NANP_Q8TBE9_49_YHYKEEAEIICDK (UniProt Q8TBE9)	0.0417
NAA16_Q6N069_465_EAEEMCSK (UniProt Q6N069)	-0.079

Taken from above.
NAPRT_Q6XQN6_484_LCLQQGQLCEPLPSLAESR (UniProt Q6XQN6) – probe-labelled cysteine peptide fold change: 0.0212
NCALD_P61601_38_DCPSGHLSMEEFKK (UniProt P61601) – probe-labelled cysteine peptide fold change: 0.362
